From paper PMC11131071
Results are given in words; binding and its absence hold for the method and conditions named. In cells and extracts the contact can be indirect. Some results given as binding are weak or reduced against the parent protein; the word gives no strength.

How the values were obtained:
[1] = target: T1, ABCG2 (human (endogenous in MCF-7/MX and H460/MX)) (UniProt Q9UNQ0); test: co-IP; lysates of H460/MX cells compared with H460 (Fig. S1B); Western blot
T1 sequence: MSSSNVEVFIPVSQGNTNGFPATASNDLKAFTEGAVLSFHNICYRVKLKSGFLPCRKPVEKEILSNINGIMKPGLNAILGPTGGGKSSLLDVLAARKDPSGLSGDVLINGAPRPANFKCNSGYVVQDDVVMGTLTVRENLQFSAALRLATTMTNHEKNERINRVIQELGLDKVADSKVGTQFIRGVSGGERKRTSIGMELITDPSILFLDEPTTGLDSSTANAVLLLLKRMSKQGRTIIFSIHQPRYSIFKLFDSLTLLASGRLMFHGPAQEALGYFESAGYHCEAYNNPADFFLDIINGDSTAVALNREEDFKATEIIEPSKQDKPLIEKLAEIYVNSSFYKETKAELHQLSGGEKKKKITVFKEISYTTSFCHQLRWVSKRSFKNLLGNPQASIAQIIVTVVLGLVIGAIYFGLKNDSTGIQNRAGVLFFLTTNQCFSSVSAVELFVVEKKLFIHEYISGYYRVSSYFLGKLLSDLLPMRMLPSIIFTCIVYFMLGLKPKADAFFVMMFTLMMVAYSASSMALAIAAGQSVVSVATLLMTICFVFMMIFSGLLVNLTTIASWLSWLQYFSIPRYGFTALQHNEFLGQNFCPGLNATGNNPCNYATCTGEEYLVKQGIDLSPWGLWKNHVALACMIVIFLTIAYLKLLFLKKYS

[2] = target: T2, ABCG2 expressed from pcDNA-ABCG2 in HEK293 cells (human) (UniProt Q9UNQ0); test: co-IP; lysates of HEK293 cells stably transfected with an ABCG2 expression vector compared with HEK293 (Fig. S1A); Western blot
T2 sequence: T1 sequence

[3] = target: T1, ABCG2 (human (endogenous in MCF-7/MX and H460/MX)); test: co-IP; MCF-7/MX (and MCF-7) lysate, 1 mg protein, lysis buffer with 1% Triton X-100, 0.5% deoxycholate, 0.1% SDS, 150 mM NaCl; anti-ABCG2 MXP-21 or anti-SLC1A5 overnight at 4 °C, protein G/A Sepharose; Western blot
[4] = target: T3, SLC1A5 (human (endogenous in MCF-7/MX, H460/MX and HEK293)) (UniProt Q15758); test: co-IP; lysates of H460/MX cells compared with H460 (Fig. S1B); Western blot
T3 sequence: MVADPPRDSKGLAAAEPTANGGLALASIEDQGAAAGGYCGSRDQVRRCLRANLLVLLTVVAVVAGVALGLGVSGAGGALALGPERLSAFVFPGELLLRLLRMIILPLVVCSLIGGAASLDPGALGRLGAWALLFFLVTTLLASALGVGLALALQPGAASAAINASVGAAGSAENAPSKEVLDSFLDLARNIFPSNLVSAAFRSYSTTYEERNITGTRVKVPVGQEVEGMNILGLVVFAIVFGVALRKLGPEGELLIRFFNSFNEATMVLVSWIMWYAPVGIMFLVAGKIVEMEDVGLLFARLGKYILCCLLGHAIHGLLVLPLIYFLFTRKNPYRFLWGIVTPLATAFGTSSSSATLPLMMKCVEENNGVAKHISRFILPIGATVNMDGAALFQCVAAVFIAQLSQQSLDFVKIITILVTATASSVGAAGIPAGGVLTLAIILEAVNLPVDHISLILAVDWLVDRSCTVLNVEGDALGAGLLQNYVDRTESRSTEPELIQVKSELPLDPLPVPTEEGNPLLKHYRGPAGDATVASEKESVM

[5] = target: T3, SLC1A5 (human (endogenous in MCF-7/MX, H460/MX and HEK293)); test: co-IP; MCF-7/MX (and MCF-7) lysate, 1 mg protein, lysis buffer with 1% Triton X-100, 0.5% deoxycholate, 0.1% SDS, 150 mM NaCl; anti-ABCG2 MXP-21 or anti-SLC1A5 overnight at 4 °C, protein G/A Sepharose; Western blot
[6] = target: T3, SLC1A5 (human (endogenous in MCF-7/MX, H460/MX and HEK293)); test: co-IP; lysates of HEK293 cells stably transfected with an ABCG2 expression vector compared with HEK293 (Fig. S1A); Western blot

B1: SLC1A5 (protein, UniProt Q15758 1-541)
chain: T3 sequence
binding [1]: binds
binding [2]: binds
binding [3]: binds

B2: ABCG2 (protein, UniProt Q9UNQ0 1-655)
chain: T1 sequence
binding [4]: binds
binding [5]: binds

B3: ABCG2 expressed from pcDNA-ABCG2 in HEK293 cells (protein, UniProt Q9UNQ0 1-655)
chain: T1 sequence
binding [6]: binds
